Measurements from ChEMBL document CHEMBL5360608, “Development of Riluzole Analogs with Improved Use-Dependent Inhibition of Skeletal Muscle Sodium Channels” (ACS Med Chem Lett, 2023).

Protein sequences, listed by entry. Tags and fused reporters are not part of them.
UniProt Q15858, whole entry: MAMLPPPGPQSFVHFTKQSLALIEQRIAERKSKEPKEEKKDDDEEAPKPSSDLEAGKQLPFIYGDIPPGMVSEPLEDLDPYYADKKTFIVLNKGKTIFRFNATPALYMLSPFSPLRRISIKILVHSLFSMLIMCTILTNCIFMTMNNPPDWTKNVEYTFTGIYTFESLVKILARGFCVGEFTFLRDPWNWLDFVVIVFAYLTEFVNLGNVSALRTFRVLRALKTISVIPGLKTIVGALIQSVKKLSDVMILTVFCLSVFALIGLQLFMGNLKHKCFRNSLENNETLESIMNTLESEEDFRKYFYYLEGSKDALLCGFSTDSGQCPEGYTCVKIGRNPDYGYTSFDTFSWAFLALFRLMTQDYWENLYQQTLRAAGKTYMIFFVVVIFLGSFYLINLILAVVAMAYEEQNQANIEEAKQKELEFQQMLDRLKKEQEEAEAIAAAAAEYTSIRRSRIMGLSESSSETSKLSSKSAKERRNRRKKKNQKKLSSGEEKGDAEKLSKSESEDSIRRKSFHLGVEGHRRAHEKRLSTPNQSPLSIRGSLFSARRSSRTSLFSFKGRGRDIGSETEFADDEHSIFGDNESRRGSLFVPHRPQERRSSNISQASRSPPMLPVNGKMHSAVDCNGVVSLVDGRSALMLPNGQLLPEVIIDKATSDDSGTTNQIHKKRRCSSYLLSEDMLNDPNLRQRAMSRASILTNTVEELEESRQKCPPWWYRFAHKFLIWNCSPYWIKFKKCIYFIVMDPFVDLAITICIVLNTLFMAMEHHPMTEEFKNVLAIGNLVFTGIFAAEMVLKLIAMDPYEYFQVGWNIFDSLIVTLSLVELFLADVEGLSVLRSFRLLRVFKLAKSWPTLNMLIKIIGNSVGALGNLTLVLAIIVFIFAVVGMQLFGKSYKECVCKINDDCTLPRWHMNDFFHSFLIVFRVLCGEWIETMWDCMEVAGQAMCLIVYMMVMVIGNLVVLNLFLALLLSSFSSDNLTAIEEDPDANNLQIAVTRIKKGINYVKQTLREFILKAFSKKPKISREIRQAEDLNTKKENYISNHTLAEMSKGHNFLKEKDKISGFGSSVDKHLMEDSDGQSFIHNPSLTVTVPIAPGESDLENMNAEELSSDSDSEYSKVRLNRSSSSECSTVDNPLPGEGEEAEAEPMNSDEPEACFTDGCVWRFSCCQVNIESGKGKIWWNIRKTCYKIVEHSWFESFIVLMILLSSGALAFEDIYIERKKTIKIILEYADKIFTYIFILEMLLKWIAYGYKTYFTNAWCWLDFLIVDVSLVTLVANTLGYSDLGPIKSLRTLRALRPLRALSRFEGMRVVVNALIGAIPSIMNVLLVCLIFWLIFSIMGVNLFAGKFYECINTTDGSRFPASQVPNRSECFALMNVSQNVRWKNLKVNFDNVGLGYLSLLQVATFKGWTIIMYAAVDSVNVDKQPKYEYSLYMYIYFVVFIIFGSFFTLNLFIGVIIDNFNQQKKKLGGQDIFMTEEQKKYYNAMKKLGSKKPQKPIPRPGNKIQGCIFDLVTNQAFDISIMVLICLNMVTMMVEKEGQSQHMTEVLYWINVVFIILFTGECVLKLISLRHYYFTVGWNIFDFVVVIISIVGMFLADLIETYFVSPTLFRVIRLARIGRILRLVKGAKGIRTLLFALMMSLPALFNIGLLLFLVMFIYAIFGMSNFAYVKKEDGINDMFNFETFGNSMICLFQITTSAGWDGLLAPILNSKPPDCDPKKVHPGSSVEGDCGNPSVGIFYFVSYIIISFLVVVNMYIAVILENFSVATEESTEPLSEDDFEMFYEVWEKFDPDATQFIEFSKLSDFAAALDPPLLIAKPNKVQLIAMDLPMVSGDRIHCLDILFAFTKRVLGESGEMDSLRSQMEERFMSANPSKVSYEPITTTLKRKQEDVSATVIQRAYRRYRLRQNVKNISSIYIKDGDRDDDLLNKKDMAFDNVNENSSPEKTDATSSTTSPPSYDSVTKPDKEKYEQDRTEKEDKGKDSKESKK

How the values were obtained:
[1] = molecular target: T1, Sodium channel protein type 9 subunit alpha (Homo sapiens, UniProt Q15858); assay: Inhibition of human Nav 1.7 expressed in HEK293T cells assessed as phasic block at 10 Hz by whole cell patch clamp assay; type: cell-based
[2] = molecular target: T1, Sodium channel protein type 9 subunit alpha; assay: Inhibition of human Nav 1.7 expressed in HEK293T cells assessed as tonic block at 0.1 Hz by whole cell patch clamp assay; type: cell-based

Structure (SMILES): Nc1nc2ccc(OC(F)(F)F)cc2s1 [RILUZOLE]
- IC50 [1]: 41 µM
- IC50 [2]: 56 µM
